According to US9422336B2 (priority 2012, dated 2016):
Some of these results come from one statement about several compounds together.

Test system: acute visceral pain model in mice
Test: acute visceral pain model in mice (acetic acid writhing)
Settings: peptides 2 mg, morphine 1 mg i.p., n=6; for p, onset of pain, peptide 5 vs this substance: FIG. 3; for p, total writhing number in 30 minutes, peptide 5 vs this substance: FIG. 4

Question: With “AQETAVSSHEQD ((1)..(12) residues 3-14 of rabbit alpha1-antiproteinase F; listed as Oryctolagus cuniculus) [Peptide 6]” as the sequence, how does the “p, onset of pain, peptide 5 vs this substance” value (from here on “p, onset … vs this substance”) read?
Answer: < 0.005

Question: And the “p, total writhing number in 30 minutes, peptide 5 vs this substance” value (shortened to “p, total writhing number … vs this substance”)?
Answer: < 0.01

Question: With “DEAQETAVSSH ((1)..(11) residues 1-11 of rabbit alpha1-antiproteinase F; listed as Oryctolagus cuniculus) [Peptide 1]” as the sequence, how does the “p, onset … vs this substance” value read?
Answer: < 0.005

Question: And the “p, total writhing number … vs this substance” value?
Answer: < 0.01

Question: What does the source list for “DEAQETAVSSHE ((1)..(12) residues 1-12 of rabbit alpha1-antiproteinase F; listed as Oryctolagus cuniculus) [Peptide 2]”?
Answer: p, onset of pain, peptide 5 vs this substance: < 0.005; p, total writhing number in 30 minutes, peptide 5 vs this substance: < 0.01

Question: How did the “p, onset … vs this substance” value turn out when “DEAQETAVSSHEQ ((1)..(13) residues 1-13 of rabbit alpha1-antiproteinase F; listed as Oryctolagus cuniculus) [Peptide 3]” was run?
Answer: < 0.005

Question: What about the “p, total writhing number … vs this substance” value of the same sequence?
Answer: < 0.01

Question: What does the source list for “EAQETAVSSHEQD ((1)..(13) residues 2-14 of rabbit alpha1-antiproteinase F; listed as Oryctolagus cuniculus) [Peptide 4]”?
Answer: p, onset of pain, peptide 5 vs this substance: < 0.005; p, total writhing number in 30 minutes, peptide 5 vs this substance: < 0.01
